Measurements from patent US20110257245A1, “METHODS OF IDENTIFYING REGULATORS OF CELLULAR PROTEOSTASIS” (The Board of Trustees of the Leland Stanford Junior …, priority 2010, published 2011).
At least one structure is not confirmed: it was looked up by name or label, or the drawing left a doubt.

Tested on: HEK293 cells stably expressing Hsp70::GFP reporter
Assay: Fluorescent heat shock (HSF1 activity) reporter Hsp70::GFP, flow cytometry
Type: cell-based
Conditions: 1 μM, overnight

CC1=C(O)C(=O)C=C2C1=CC=C1[C@@]2(C)CC[C@@]2(C)[C@@H]3C[C@](C)(C(=O)O)CC[C@]3(C)CC[C@]12C [celastrol]
mean GFP fluorescence of Hsp70::GFP reporter: increased
